Test results taken from US20180318834A1, “INTEGRATION OF ELECTROCHECMICAL PH MODULATION WITH LAB ON A CHIP TECHNOLOGIES” (Robert Bosch GmbH, priority 2015, published 2018).

Assay: Electrochemical modulation of pH at ITO working electrode, monitored by GFP fluorescence intensity
Type: physicochemical

## Cc1cc(O)ccc1O [2-methyl-1,4-dihydroquinone]
50 microamps for 30 second, diluted phosphate buffer pH 7.4 with 0.1M Na2SO4, pH from GFP fluorescence
  solution pH after current-driven oxidation: 5.5
Diluted phosphate buffer pH 7.4 with 0.1M Na2SO4
  time for pH to recover to neutral value after current was turned off: ≤ 50 seconds
